Test [1] concerns the target T1, myelin protein zero (P0), endogenous in adult mouse sciatic nerve (mouse (endogenous in sciatic nerve)) (UniProt P27573).
T1 sequence: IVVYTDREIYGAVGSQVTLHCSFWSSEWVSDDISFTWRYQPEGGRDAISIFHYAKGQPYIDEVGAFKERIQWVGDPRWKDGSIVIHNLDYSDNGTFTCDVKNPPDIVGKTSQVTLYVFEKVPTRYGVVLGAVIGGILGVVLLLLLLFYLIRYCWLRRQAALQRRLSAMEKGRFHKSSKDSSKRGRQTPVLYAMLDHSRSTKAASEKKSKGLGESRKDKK
Kind of test: co-IP; IP with 2 ug chicken anti-P0 antibody on PrecipHen beads from adult control littermate mouse sciatic nerve lysates (8 wk post-tamoxifen); blot with pan-NFasc antibody; chicken IgY as negative control.

Test [2] concerns the target T1, myelin protein zero (P0), endogenous in adult mouse sciatic nerve (mouse (endogenous in sciatic nerve)). Kind of test: co-IP; as a2, but from sciatic nerve lysates of HDAC1/2 dKO mice at 8 wk post-tamoxifen (P0 levels reduced).

Results are given in words; binding and its absence hold for the method and conditions named. Binding seen in cells or lysates may run through a third protein. Some results given as binding are weak or reduced against the parent protein; the word gives no strength.

B1: NFasc186, endogenous in adult mouse sciatic nerve (protein, UniProt Q810U3 25-1240)
chain: IEIPMDPSIQNELTQPPTITKQSVKDHIVDPRDNILIECEAKGNPAPSFHWTRNSRFFNIAKDPRVSMRRRSGTLVIDFRSGGRPEEYEGEYQCFARNKFGTALSNRIRLQVSKSPLWPKENLDPVVVQEGAPLTLQCNPPPGLPSPVIFWMSSSMEPITQDKRVSQGHNGDLYFSNVMLQDMQTDYSCNARFHFTHTIQQKNPFTLKVLTTRGVAERTPSFMYPQGTSSSQMVLRGMDLLLECIASGVPTPDIAWYKKGGDLPSNKAKFENFNKALRITNVSEEDSGEYFCLASNKMGSIRHTISVRVKAAPYWLDEPKNLILAPGEDGRLVCRANGNPKPTVQWMVNGEPLQSAPPNPNREVAGDTIIFRDTQISSRAVYQCNTSNEHGYLLANAFVSVLDVPPRMLSARNQLIRVILYNRTRLDCPFFGSPIPTLRWFKNGQGSNLDGGNYHVYENGSLEIKMIRKEDQGIYTCVATNILGKAENQVRLEVKDPTRIYRMPEDQVAKRGTTVQLECRVKHDPSLKLTVSWLKDDEPLYIGNRMKKEDDSLTIFGVAERDQGSYTCMASTELDQDLAKAYLTVLADQATPTNRLAALPKGRPDRPRDLELTDLAERSVRLTWIPGDDNNSPITDYVVQFEEDQFQPGVWHDHSRFPGSVNSAVLHLSPYVNYQFRVIAVNEVGSSHPSLPSERYRTSGAPPESNPSDVKGEGTRKNNMEITWTPMNATSAFGPNLRYIVKWRRRETRETWNNVTVWGSRYVVGQTPVYVPYEIRVQAENDFGKGPEPDTIIGYSGEDLPSAPRRFRVRQPNLETINLEWDHPEHPNGILIGYILRYVPFNGTKLGKQMVENFSPNQTKFSVQRADPVSRYRFSLSARTQVGSGEAATEESPAPPNEATPTAAPPTLPPTTVGTTGLVSSTDATALAATSEATTVPIIPTVVPTTVATTIATTTTTTAATTTTTTTESPPTTTAGTKIHETAPDEQSIWNVTVLPNSKWANITWKHNFRPGTDFVVEYIDSNHTKKTVPVKAQAQPIQLTDLFPGMTYTLRVYSRDNEGISSTVITFMTSTAYTNNQADIATQGWFIGLMCAIALLVLILLIVCFIKRSRGGKYPVREKKDVPLGPEDPKEEDGSFDYSDEDNKPLQGSQTSLDGTIKQQESDDSLVDYGEGGEGQFNEDGSFIGQYTVKKDKEETEGNESSEATSPVNAIYSLA
As for B1, the figures for the binding entry in test [1] and in test [2] were “binds” and “binds weakly”, respectively.

Values taken from article PMC4583457.
